Patent publication US20250353921A1
These are yes or no findings as the source states them, for the method shown. Binding calls can cover weak binding; strength is not graded here. Tags and fused reporters may be left off the sequences shown.

Biological target: cynomolgus OX40-ECD-his (cynomolgus)
Assay: SPR Biacore T200 kinetic screen, scFv-Fc captured, antigen at 1 µM

B1: MAB1 scFv-Fc fusion protein (Fc fusion, not shown: a dimerising Fc or GST)
chain: QVTLKESGPALVKPTQTLTLTCSFSGFSLSTSGMGVGWIRQPPGKALEWIAHIWWDDDKYYNTALKTRLTISKDTSKNQVVLTMTNMDPVDTATYYCARIDWDGFAYWGQGTLVTVSSGGGGSGGGGSGGGGSEIVLTQSPATLSLSPGERATLSCRASSSVSYMHWYQQKPGQAPRPWIYATSNRATGIPARFSGSGSGTDYTLTISSLEPEDFAVYYCQQFGAWPWTFGQGTKVEIKGGGG
binding: binds
